In the supplement of paper PMC11546906:
Counter-ions that a name gives are not always drawn. The list shows a part of the results. This data set is noisy: repeats of one test often differ as much as different tests do.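 A screen tested FDA-approved drugs combined with one-eighth-MIC colistin against a clinical mcr-1-positive, multidrug-resistant E. coli isolate, measuring OD600 at 24 h. Controls were untreated bacteria (growth) and broth alone (blank). An OD600 under 0.2 marked a combination as active.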

What follows are compounds tested on Escherichia coli 42 (mcr-1-positive clinical isolate) (assay: OD600 after 24 h growth with compound plus colistin (absorbance units (OD600)); higher = more bacterial growth (less inhibition)). Settings: first compound 25 µM; colistin concentration 0.5 ug/mL; incubation time 24 h; 37 °C.

OD600, inactive:
Cc1oncc1C(=O)Nc1ccc(C(F)(F)F)cc1 [Leflunomide] + CCC(C)CCCC(=O)N[C@@H](CCN)C(=O)N[C@H](C(=O)N[C@@H](CCN)C(=O)N[C@H]1CCNC(=O)[C@H]([C@@H](C)O)NC(=O)[C@H](CCN)NC(=O)[C@H](CCN)NC(=O)[C@H](CC(C)C)NC(=O)[C@@H](CC(C)C)NC(=O)[C@H](CCN)NC1=O)[C@@H](C)O [colistin] 1.07
CC(=O)Nc1cccc(-n2c(=O)n(C3CC3)c(=O)c3c(Nc4ccc(I)cc4F)n(C)c(=O)c(C)c32)c1 [Trametinib (DMSO solvate)] + CCC(C)CCCC(=O)N[C@@H](CCN)C(=O)N[C@H](C(=O)N[C@@H](CCN)C(=O)N[C@H]1CCNC(=O)[C@H]([C@@H](C)O)NC(=O)[C@H](CCN)NC(=O)[C@H](CCN)NC(=O)[C@H](CC(C)C)NC(=O)[C@@H](CC(C)C)NC(=O)[C@H](CCN)NC1=O)[C@@H](C)O [colistin] 0.934
OC(CNCC(O)C1CCc2cc(F)ccc2O1)C1CCc2cc(F)ccc2O1 (centres undefined) [Nebivolol hydrochloride] + CCC(C)CCCC(=O)N[C@@H](CCN)C(=O)N[C@H](C(=O)N[C@@H](CCN)C(=O)N[C@H]1CCNC(=O)[C@H]([C@@H](C)O)NC(=O)[C@H](CCN)NC(=O)[C@H](CCN)NC(=O)[C@H](CC(C)C)NC(=O)[C@@H](CC(C)C)NC(=O)[C@H](CCN)NC1=O)[C@@H](C)O [colistin] 0.841
CCN(Cc1ccncc1)C(=O)C(CO)c1ccccc1 (centres undefined) [Tropicamide] + CCC(C)CCCC(=O)N[C@@H](CCN)C(=O)N[C@H](C(=O)N[C@@H](CCN)C(=O)N[C@H]1CCNC(=O)[C@H]([C@@H](C)O)NC(=O)[C@H](CCN)NC(=O)[C@H](CCN)NC(=O)[C@H](CC(C)C)NC(=O)[C@@H](CC(C)C)NC(=O)[C@H](CCN)NC1=O)[C@@H](C)O [colistin] 1.14
